Experimental data from patent US12225904B2, “Phenylpyrazole compound and method for controlling plant disease” (SUMITOMO CHEMICAL COMPANY, LIMITED, priority 2019, dated 2025).
Some of these results come from one statement about several compounds together. At least one structure is not confirmed: it was looked up by name or label, or the drawing left a doubt.

Columns and labels:
[1] = system: Septoria leaf blotch (Septoria tritici); assay: Test Example 8: control test against Septoria leaf blotch, foliar spray on potted wheat; type: in vivo; conditions: 500 ppm foliar spray; wheat cv Apogee; spores inoculated 4 days after spraying
[2] = system: Septoria leaf blotch (Septoria tritici); assay: Test Example 9: control test against Septoria leaf blotch, foliar spray on potted wheat; type: in vivo; conditions: 200 ppm foliar spray; wheat cv Apogee; spores inoculated 4 days after spraying
[3] = system: soybean rust (Phakopsora pachyrhizi) spores; assay: Test Example 22: control test against soybean rust, spore germination on agar in petri dish; type: cell-based; conditions: 10 ppm as the treated concentration; 23° C., 1 day
[4] = system: soybean rust (Phakopsora pachyrhizi); assay: Test Example 5: control test against soybean rust, foliar spray on potted soybean; type: in vivo; conditions: 200 ppm foliar spray; soybean cv Kurosengoku; spores inoculated 2 to 5 days after spraying; observed after 10 to 14 days
[5] = system: Septoria leaf blotch (Septoria tritici); assay: Test Example 10: control test against Septoria leaf blotch, foliar spray on potted wheat; type: in vivo; conditions: 200 ppm foliar spray; wheat cv Apogee; after spraying under lighting for 14 to 18 days
[6] = system: cucumber brown spot (Corynespora cassiicola); assay: Test Example 20: control test against cucumber brown spot, foliar spray on potted cucumber; type: in vivo; conditions: 200 ppm foliar spray; cucumber cv SAGAMIHANJIRO; inoculated 1 day after spraying; 7 days
[7] = system: cucumber anthracnose (Colletotrichum lagenarium); assay: Test Example 21: control test against cucumber anthracnose, foliar spray on potted cucumber; type: in vivo; conditions: 200 ppm foliar spray; cucumber cv SAGAMIHANJIRO; inoculated 1 day after spraying
[8] = system: kidney bean stem rot (Sclerotinia sclerotiorum); assay: Test Example 17: control test against kidney bean stem rot, foliar spray on potted kidney bean; type: in vivo; conditions: 500 ppm foliar spray; kidney bean cv NAGAUZURA SAITO; PDA medium with hyphae placed on leaves; observed after 4 days
[9] = system: barley scald (Rhynchosporium secalis); assay: Test Example 16: control test against barley scald, foliar spray on potted barley; type: in vivo; conditions: 200 ppm foliar spray; barley cv NISHINOHOSHI; spores inoculated 1 day after spraying

Row | SMILES | lesion area compared to the lesion area in an untreated wheat [1] [%] | lesion area compared to the lesion area in an untreated wheat [2] [%] | number of germinated spores compared to the number of germinated spores in an untreated group [3] [%] | lesion area compared to the lesion area in an untreated soybean [4] [%] | lesion area compared to the lesion area in an untreated wheat [5] [%] | lesion area compared to the lesion area in an untreated cucumber [6] [%] | other results
1 | CCS(=O)(=O)n1ccc(-c2ccc(Cl)cc2)n1 [compound 6] | ≤ 30 | ≤ 30 | ≤ 40 | ≤ 30 | ≤ 30 | ≤ 30 | 
2 | CCS(=O)(=O)n1ccc(-c2ccc(Br)cc2)n1 [compound 10] | ≤ 30 | ≤ 30 | ≤ 40 | ≤ 30 | ≤ 30 |  | 
3 | CCS(=O)(=O)n1ccc(-c2ccc(Cl)c(Cl)c2)n1 [compound 11] | ≤ 30 | ≤ 30 | ≤ 40 | ≤ 30 | ≤ 30 | ≤ 30 | 
4 | CCS(=O)(=O)n1ccc(-c2c(F)cc(F)cc2F)n1 [compound 12] |  |  |  |  | ≤ 30 |  | 
5 | CCS(=O)(=O)n1ccc(-c2ccc(C(F)(F)F)cc2)n1 [compound 16] | ≤ 30 | ≤ 30 | ≤ 40 | ≤ 30 |  | ≤ 30 | 
6 | CCS(=O)(=O)n1ccc(-c2ccc(OC)cc2)n1 [compound 18] |  |  |  |  |  |  | lesion area compared to the lesion area in an untreated cucumber [7]: ≤ 30%
7 | CCS(=O)(=O)n1ccc(-c2ccc(Cl)c(C)c2)n1 [compound 20] |  | ≤ 30 |  | ≤ 30 |  |  | lesion area compared to the lesion area in an untreated cucumber [7]: ≤ 30%
8 | CCS(=O)(=O)n1ccc(-c2ccc(F)c(F)c2)n1 [compound 21] |  | ≤ 30 |  | ≤ 30 |  | ≤ 30 | 
9 | CCS(=O)(=O)n1ccc(-c2ccc(C)c(C)c2)n1 [compound 22] |  | ≤ 30 | ≤ 40 | ≤ 30 |  |  | lesion area compared to the lesion area in an untreated kidney beans [8]: ≤ 30%
10 | CCS(=O)(=O)n1ccc(-c2ccc(C(C)C)cc2)n1 [compound 23] | ≤ 30 |  |  |  | ≤ 30 |  | lesion area compared to the lesion area in an untreated barley [9]: ≤ 30%
11 | CCc1ccc(-c2ccn(S(=O)(=O)CC)n2)cc1 [compound 24] |  |  | ≤ 40 |  | ≤ 30 |  | 
12 | CCCCc1ccc(-c2ccn(S(=O)(=O)CC)n2)cc1 [compound 25] |  |  |  |  |  | ≤ 30 | 
13 | CCS(=O)(=O)n1ccc(-c2cc(Cl)c(Cl)c(Cl)c2)n1 [compound 27] |  |  |  |  |  | ≤ 30 | 
14 | CCCS(=O)(=O)n1ccc(-c2ccc(Cl)c(Cl)c2)n1 [compound 28] |  | ≤ 30 |  |  |  |  | lesion area compared to the lesion area in an untreated kidney beans [8]: ≤ 30%
15 | CCCS(=O)(=O)n1ccc(-c2cccc(OCc3ccccc3Cl)c2)n1 [compound 168] |  | ≤ 30 | ≤ 40 | ≤ 30 | ≤ 30 |  | 
16 | CCCS(=O)(=O)n1ccc(-c2cccc(OCc3ccc(C(C)C)cc3)c2)n1 [compound 173] |  |  |  |  | ≤ 30 |  | 
